No constants are given. Whether binding was seen depends on the method and setting. Binding can be weak; no strength is given.
Experiments:
Assay in all cases: ELISA, VP1 coated, anti-FLAG-HRP detection
[1] = molecular target: VP1 derived from human norovirus GII.2 (MK04 strain) (human norovirus GII.2 (MK04 strain))
[2] = molecular target: VP1 derived from human norovirus GII.4 (Narita 104 strain) (human norovirus GII.4 (Narita 104 strain))
[3] = molecular target: VP1 derived from human norovirus GII.4 (Saga 1 strain) (human norovirus GII.4 (Saga 1 strain))
[4] = molecular target: VP1 derived from human norovirus GII.6 (7K strain) (human norovirus GII.6 (7K strain))

Measured: binding

B1: KVP-7B8 (VHH)
VHH: EVQLVESGGGLVQAGGSLRLSCAASGSTFSINGVAWYRQAPGKQRELVGGISRSGWTNYADSVKGRFTISSDNAKNTVYLQMNSLKPEDTAVYYCNVNLHSGLGNVKNYWGQGTQVTVSS
binds: all assays above

B2: KVP-7F10 (VHH)
VHH: EVQLVESGGGLVQAGGSLRLSCLASGSISSINTMAWYRQAPGKQRELVASISSGGGTNYADSVKGRFTISTDNAKNTVYLQMNSLESEDTAVYFCNLHNFSPISPPRSYWGQGTQVTVSS
binds: all assays above

— patent US20210087258A1 (UNIVERSITY OF TOKYO, published 2021)
